Measurements as given in the supplement of paper PMC11006884.
Most of the targets with a hit are listed elsewhere, so they are rarer here than in the full data. This is a noisy data set. This is a selection; strong and weak results do not stand in their true shares.

Sequences of proteins named here, by UniProt entry; tags and fusion partners are left off. A change or cut given only in a name is not applied to a line headed by its entry.
UniProt Q96CW5, whole entry, looked up: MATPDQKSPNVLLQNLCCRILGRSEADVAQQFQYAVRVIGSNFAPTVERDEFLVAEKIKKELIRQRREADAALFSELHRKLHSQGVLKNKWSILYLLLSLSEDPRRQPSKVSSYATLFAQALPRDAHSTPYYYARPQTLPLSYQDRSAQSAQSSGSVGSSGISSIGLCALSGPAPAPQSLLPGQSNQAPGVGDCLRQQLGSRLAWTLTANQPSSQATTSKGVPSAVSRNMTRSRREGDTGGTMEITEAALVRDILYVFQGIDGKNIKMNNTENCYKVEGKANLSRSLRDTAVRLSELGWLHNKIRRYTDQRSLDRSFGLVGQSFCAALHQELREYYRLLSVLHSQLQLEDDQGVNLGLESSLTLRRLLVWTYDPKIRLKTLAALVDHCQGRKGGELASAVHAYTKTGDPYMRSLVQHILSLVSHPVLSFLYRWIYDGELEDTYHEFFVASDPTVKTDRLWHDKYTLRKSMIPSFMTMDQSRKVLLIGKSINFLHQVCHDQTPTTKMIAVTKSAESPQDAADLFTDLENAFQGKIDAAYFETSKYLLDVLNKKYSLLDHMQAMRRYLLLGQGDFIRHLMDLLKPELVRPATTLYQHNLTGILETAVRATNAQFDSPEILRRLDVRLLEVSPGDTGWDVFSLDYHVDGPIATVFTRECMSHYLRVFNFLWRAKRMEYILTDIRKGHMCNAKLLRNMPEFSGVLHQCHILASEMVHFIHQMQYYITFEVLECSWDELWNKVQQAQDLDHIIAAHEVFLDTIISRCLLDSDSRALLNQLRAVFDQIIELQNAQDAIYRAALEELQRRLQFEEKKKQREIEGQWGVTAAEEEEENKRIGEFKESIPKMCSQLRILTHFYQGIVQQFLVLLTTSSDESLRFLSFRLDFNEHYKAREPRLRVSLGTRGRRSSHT
UniProt Q96AG4: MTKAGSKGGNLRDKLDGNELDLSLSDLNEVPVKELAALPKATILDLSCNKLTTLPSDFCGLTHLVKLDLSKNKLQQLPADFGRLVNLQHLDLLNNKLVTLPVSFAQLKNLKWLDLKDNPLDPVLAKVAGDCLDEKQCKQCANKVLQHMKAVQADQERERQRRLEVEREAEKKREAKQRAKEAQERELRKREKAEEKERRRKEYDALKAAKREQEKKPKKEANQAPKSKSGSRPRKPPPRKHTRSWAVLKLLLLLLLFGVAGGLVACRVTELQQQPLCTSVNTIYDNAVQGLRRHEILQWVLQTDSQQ
UniProt Q92879: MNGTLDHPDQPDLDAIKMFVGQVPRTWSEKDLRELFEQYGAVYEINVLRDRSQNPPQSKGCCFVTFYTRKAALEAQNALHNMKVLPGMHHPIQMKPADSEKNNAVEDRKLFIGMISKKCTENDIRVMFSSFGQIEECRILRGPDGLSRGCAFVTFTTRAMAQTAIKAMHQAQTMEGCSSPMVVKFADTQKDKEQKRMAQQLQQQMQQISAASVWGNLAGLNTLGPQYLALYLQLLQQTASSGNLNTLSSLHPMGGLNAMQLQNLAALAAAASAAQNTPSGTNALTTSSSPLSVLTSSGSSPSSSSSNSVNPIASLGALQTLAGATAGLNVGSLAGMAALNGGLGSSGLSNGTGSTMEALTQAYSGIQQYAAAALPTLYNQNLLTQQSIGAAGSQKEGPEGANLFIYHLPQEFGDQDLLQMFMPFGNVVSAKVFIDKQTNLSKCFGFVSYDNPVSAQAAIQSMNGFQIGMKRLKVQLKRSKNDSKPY
UniProt Q92598: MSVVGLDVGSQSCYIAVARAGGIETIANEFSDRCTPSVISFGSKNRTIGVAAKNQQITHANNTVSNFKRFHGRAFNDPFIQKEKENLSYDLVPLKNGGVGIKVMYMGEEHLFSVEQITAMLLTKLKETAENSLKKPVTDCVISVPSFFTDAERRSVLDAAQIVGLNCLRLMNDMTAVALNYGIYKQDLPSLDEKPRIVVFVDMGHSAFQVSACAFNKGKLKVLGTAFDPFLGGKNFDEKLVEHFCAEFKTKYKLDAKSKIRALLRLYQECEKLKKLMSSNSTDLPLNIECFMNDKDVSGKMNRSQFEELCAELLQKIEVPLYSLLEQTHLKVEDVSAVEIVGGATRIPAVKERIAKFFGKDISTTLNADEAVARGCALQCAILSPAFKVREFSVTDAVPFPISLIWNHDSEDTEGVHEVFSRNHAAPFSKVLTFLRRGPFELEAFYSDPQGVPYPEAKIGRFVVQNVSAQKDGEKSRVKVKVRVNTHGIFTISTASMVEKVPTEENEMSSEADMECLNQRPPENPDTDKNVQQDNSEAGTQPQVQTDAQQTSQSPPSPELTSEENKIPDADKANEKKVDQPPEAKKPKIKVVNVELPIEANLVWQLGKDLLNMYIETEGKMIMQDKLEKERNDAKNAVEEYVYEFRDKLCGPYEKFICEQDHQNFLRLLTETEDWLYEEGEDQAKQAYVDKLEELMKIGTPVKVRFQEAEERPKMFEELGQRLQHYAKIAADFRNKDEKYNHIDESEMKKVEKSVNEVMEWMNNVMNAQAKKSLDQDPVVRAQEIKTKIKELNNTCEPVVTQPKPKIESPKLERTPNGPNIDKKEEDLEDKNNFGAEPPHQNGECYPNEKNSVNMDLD
UniProt Q92797: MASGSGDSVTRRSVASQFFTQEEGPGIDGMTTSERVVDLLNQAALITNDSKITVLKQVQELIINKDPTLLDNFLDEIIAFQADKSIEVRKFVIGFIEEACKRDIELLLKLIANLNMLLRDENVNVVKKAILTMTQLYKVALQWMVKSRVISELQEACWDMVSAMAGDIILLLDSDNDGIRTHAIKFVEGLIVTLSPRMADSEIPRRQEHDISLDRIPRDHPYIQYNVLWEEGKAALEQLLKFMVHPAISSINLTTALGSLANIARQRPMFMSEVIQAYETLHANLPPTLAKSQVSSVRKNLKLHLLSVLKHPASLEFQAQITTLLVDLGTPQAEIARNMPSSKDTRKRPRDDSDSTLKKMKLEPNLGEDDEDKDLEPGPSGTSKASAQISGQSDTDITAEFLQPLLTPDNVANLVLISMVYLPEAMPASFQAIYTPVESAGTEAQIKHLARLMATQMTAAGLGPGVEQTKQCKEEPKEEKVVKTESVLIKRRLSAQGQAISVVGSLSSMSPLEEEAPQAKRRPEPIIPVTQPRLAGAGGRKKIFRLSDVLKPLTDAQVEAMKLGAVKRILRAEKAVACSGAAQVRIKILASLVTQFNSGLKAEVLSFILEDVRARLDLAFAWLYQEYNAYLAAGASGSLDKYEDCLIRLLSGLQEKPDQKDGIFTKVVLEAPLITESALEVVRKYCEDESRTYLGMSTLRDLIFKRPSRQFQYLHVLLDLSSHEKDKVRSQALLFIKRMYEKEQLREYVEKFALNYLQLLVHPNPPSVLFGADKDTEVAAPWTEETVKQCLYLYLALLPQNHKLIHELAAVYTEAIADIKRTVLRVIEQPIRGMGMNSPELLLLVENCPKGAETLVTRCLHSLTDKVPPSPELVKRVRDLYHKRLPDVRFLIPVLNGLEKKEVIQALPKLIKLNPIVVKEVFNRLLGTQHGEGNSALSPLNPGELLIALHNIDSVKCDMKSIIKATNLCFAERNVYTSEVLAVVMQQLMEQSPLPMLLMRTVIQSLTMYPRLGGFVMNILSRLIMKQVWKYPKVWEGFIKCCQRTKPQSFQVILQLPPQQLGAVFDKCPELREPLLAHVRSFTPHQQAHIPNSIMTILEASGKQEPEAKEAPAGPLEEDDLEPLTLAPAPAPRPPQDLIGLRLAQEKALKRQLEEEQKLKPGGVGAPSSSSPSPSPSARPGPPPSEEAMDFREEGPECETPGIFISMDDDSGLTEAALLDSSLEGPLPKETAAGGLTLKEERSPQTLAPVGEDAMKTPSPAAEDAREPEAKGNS
UniProt Q96AX9: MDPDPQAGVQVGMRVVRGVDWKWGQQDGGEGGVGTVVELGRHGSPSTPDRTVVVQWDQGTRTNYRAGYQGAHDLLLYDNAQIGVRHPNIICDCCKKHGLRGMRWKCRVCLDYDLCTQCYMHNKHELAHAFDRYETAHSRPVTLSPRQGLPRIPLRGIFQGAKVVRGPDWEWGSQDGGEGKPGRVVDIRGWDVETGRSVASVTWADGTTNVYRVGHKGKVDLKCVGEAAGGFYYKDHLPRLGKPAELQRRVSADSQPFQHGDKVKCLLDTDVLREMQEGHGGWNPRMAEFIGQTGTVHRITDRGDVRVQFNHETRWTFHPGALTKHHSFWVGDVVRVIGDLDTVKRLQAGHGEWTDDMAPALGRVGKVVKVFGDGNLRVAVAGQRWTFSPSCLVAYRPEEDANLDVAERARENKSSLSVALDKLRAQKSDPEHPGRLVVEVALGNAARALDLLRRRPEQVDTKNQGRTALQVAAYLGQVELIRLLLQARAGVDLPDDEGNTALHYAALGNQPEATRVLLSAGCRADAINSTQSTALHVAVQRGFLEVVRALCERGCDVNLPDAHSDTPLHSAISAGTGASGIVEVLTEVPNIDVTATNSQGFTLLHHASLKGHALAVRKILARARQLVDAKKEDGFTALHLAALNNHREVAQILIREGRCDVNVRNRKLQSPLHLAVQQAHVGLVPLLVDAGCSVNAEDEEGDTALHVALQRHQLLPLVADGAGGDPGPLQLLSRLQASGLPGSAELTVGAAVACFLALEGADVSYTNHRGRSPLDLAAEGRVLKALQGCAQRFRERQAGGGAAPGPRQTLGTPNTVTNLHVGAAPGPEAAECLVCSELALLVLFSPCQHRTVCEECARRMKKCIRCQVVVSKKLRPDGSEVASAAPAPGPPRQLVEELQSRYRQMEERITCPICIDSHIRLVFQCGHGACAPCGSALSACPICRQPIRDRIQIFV
UniProt Q92782, whole entry, looked up: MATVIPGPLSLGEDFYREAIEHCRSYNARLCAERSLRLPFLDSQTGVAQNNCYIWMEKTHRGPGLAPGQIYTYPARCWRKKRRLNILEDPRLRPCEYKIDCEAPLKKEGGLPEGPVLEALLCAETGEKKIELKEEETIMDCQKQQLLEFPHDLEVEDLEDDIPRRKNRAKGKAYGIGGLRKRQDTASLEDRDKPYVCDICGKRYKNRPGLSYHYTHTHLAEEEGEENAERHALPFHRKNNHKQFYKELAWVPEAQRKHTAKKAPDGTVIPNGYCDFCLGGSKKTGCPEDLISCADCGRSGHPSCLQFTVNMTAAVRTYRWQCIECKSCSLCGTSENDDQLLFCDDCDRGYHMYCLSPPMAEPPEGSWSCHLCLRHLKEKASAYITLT
UniProt Q96F86: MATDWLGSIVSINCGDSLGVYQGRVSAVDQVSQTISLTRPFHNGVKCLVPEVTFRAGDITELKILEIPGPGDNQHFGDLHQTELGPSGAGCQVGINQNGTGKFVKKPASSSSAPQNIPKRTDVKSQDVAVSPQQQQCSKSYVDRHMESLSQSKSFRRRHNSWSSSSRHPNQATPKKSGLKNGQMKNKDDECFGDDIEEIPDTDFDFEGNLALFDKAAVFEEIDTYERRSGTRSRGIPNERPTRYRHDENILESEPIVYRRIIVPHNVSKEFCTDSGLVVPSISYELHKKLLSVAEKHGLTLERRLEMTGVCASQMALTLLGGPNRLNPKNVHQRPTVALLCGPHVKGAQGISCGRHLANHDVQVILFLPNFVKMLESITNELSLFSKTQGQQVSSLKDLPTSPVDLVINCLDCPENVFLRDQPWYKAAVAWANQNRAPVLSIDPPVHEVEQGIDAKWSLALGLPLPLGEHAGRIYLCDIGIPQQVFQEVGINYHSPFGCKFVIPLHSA
UniProt Q96EK5: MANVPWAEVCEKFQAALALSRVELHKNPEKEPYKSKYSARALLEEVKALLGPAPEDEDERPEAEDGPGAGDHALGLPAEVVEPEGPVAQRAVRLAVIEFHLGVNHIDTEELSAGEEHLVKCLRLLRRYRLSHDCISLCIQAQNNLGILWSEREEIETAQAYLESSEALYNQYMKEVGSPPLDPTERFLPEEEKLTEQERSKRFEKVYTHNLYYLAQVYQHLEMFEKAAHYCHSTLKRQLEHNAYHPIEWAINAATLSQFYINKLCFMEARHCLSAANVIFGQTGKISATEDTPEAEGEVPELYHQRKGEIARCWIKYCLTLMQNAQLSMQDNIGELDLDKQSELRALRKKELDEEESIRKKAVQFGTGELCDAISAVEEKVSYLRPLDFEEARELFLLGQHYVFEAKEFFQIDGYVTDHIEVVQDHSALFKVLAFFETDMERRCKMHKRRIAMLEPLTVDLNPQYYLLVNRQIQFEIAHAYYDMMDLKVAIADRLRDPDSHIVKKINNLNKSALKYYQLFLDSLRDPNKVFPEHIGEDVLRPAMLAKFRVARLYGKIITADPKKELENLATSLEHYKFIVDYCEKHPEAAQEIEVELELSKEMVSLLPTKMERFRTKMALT
UniProt Q96EK6: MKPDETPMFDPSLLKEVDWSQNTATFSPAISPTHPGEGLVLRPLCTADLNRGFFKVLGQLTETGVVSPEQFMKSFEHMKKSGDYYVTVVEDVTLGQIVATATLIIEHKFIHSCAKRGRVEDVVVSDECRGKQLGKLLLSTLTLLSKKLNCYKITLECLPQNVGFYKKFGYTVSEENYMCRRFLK

Compound: COC(=O)/C=C/c1ccccc1 [methyl cinnamate]
Test: log2 ratio of iodoacetamide-alkyne labeling of the cysteine site, DMSO over compound (competition); higher = stronger covalent engagement of the cysteine by the compound, active = 1 or more
Details: 500 µM; treatment time 1 h; system: HEK293T cell lysate
In short: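 HEK293T lysate (2 mg/mL) was treated with DMSO or electrophile (500 µM, 1 h, ambient temperature), then iodoacetamide alkyne (1 h), clicked to sCIP-TMT reagents, pooled, trypsin-digested overnight at 37 °C, streptavidin-enriched and acid-eluted. Peptides were run on Orbitrap Eclipse LC-MS/MS with FAIMS and quantified in FragPipe. The log2 competition ratio per cysteine is mean control-channel over mean compound-channel reporter intensity. Duplicate channels and three replicates were used, and cysteines quantified in only one replicate were excluded.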

Row | Target | log2 ratio of iodoacetamide-alkyne labeling
1 | ZNF503 C219 (UniProt Q96F45) | inactive: 0.341
2 | TUBGCP3 C497 (UniProt Q96CW5) | inactive: 0.0455
3 | LRRC59 C59 (UniProt Q96AG4) | inactive: 0.0193
4 | UniProt Q969Z3_C272 | inactive: 0.0568
5 | LPP C465 (UniProt Q93052) | inactive: 0.0367
6 | TONSL C762 (UniProt Q96HA7) | inactive: 0.328
7 | USP7 C510 (UniProt Q93009) | inactive: 0.173
8 | PDLIM5 C449 (UniProt Q96HC4) | inactive: 0.227
9 | UniProt Q92616_C1482 | inactive: 0.0848
10 | GPKOW C394 (UniProt Q92917) | inactive: 0.198
11 | TUBGCP3 C18 (UniProt Q96CW5) | inactive: 0.515
12 | RNF25 C360 (UniProt Q96BH1) | inactive: 0.616
13 | LIN37 C119 (UniProt Q96GY3) | inactive: 0.083
14 | DCUN1D4 C253 (UniProt Q92564) | inactive: 0.195
15 | PHF3 C843 (UniProt Q92576) | inactive: 0.409
16 | ZNF592 C1221 (UniProt Q92610) | inactive: 0.223
17 | GBF1 C592 (UniProt Q92538) | inactive: 0.237
18 | PHKB C299 (UniProt Q93100) | inactive: 0.202
19 | UniProt Q92879_C61 | inactive: 0.129
20 | RPL36AL C72 (UniProt Q969Q0) | inactive: 0.173
21 | KHSRP C176 (UniProt Q92945) | inactive: 0.0858
22 | UniProt Q92888_C911 | inactive: 0.274
23 | POM121 C217 (UniProt Q96HA1) | inactive: 0.197
24 | HSPH1 C34 (UniProt Q92598) | inactive: 0.132
25 | UniProt Q96EY5_C90 | inactive: 0.411

Row | Target | log2 ratio of iodoacetamide-alkyne labeling
26 | UniProt Q92888_C537 | inactive: 0.0706
27 | ZNF428 C96 (UniProt Q96B54) | inactive: 0.251
28 | SYMPK C686 (UniProt Q92797) | inactive: 0.175
29 | ZNF428 C111 (UniProt Q96B54) | inactive: 0.213
30 | SYMPK C859 (UniProt Q92797) | inactive: -0.225
31 | UniProt Q96GD4_C234 | inactive: 0.26
32 | DTNBP1 C302 (UniProt Q96EV8) | inactive: 0.16
33 | SECISBP2L C544 (UniProt Q93073) | inactive: 0.178
34 | UniProt Q96EY5_C33 | inactive: 0.196
35 | SMARCC1 C164 (UniProt Q92922) | inactive: 0.136
36 | ANP32B C123 (UniProt Q92688) | inactive: 0.136
37 | ZC3HAV1L C125 (UniProt Q96H79) | inactive: 0.0478
38 | USP9X C864 (UniProt Q93008) | inactive: 0.217
39 | MCRS1 C84 (UniProt Q96EZ8) | inactive: 0.389
40 | TAF15 C360 (UniProt Q92804) | inactive: 0.208
41 | GBF1 C1414 (UniProt Q92538) | inactive: -0.0373
42 | PHF3 C1771 (UniProt Q92576) | inactive: 0.324
43 | UniProt Q96AX9_C323 | inactive: 0.359
44 | NDRG1 C289 (UniProt Q92597) | inactive: 0.342
45 | UniProt Q96FZ5_C12 | inactive: 0.172
46 | RAD50 C133 (UniProt Q92878) | inactive: 0.204
47 | NUP205 C877 (UniProt Q92621) | inactive: 0.0547
48 | UPF1 C683 (UniProt Q92900) | inactive: 0.00632
49 | ISOC2 C84 (UniProt Q96AB3) | inactive: 0.14
50 | UniProt Q96FZ2_C131 | inactive: 0.26

Taken from above.
ZNF503 C219 (UniProt Q96F45) | log2 ratio of iodoacetamide-alkyne labeling: inactive: 0.341
SYMPK C859 (UniProt Q92797) | log2 ratio of iodoacetamide-alkyne labeling: inactive: -0.225
UniProt Q96EY5_C90 | log2 ratio of iodoacetamide-alkyne labeling: inactive: 0.411

Later entries.

Row | Target | log2 ratio of iodoacetamide-alkyne labeling
51 | KHSRP C436 (UniProt Q92945) | inactive: 0.148
52 | DPF1 C149 (UniProt Q92782) | inactive: -0.00399
53 | UniProt Q96CS4_C70 | inactive: 0.21
54 | RNF34 C65 (UniProt Q969K3) | inactive: 0.549
55 | ACD C406 (UniProt Q96AP0) | inactive: 0.251
56 | KCTD12 C50 (UniProt Q96CX2) | inactive: 0.228
57 | LRRC59 C48 (UniProt Q96AG4) | inactive: 0.132
58 | TUBGCP3 C274 (UniProt Q96CW5) | inactive: 0.136
59 | LRRC59 C277 (UniProt Q96AG4) | inactive: -0.0337
60 | FUBP1 C332 (UniProt Q96AE4) | inactive: 0.159
61 | TOE1 C271 (UniProt Q96GM8) | inactive: 0.0476
62 | DVL3 C69 (UniProt Q92997) | inactive: 0.138
63 | UniProt Q96FZ2_C266 | inactive: 0.165
64 | TNPO1 C103 (UniProt Q92973) | inactive: 0.27
65 | SMARCC1 C462 (UniProt Q92922) | inactive: 0.286
66 | HSPH1 C658 (UniProt Q92598) | inactive: 0.0648
67 | EDC3 C137 (UniProt Q96F86) | inactive: 0.491
68 | USP9X C673 (UniProt Q93008) | inactive: 0.195
69 | UniProt Q93015_C250 | inactive: 0.0124
70 | UniProt Q96EK5_C371 | inactive: 0.0029
71 | DHX38 C27 (UniProt Q92620) | inactive: 0.345
72 | UniProt Q92615_C654 | inactive: 0.419
73 | GNPNAT1 C45 (UniProt Q96EK6) | inactive: 0.13
74 | LPP C468 (UniProt Q93052) | inactive: 0.0367
75 | HDAC2 C417 (UniProt Q92769) | inactive: 0.308
